# Laboratory results from PubChem BioAssay AID588497 (NMMLSC, 2011).
# The whole screen tested about 360,000 compounds, of which about 780 (0.22%) were called active. The shares of active, inactive and inconclusive entries below differ from those in the screen. Rule as the data show it: active = inhibition above about 35% (passing the limit was not always enough); inconclusive = no clear call, values can overlap the other calls.
# System: Botulinum neurotoxin type F light chain protease (Clostridium botulinum)
# Experiment: BoNT/F light chain protease inhibitors, primary screen, biochemical, flow cytometry, MLPCN library (AID 588497); also: plate controls were buffer without enzyme for full effect and enzyme alone for no effect
# Conditions: Multiplex microsphere protease cleavage assay, at 10 µM, hits give high values
row,Structure (SMILES),inhibition
1,O=C(c1cccs1)N1CCc2c([nH]c3ccccc23)C1c1ccccn1 (centres undefined),inactive: 4.4%
2,Cn1c(N/N=C2\CCCc3ccccc32)nc2c1c(=O)n(Cc1ccc(F)cc1)c(=O)n2C,inactive: 24.9%
3,Cc1ccc(N(Cc2ccccc2)C(=O)c2cccc(S(=O)(=O)N3CCN(C)CC3)c2)cc1,inconclusive: -11%
4,CC(=O)N(Cc1cc2cc(C)c(C)cc2n2nnnc12)CC1COCCO1 (centres undefined),inactive: 1.7%
5,COc1ccc(-c2cc([N+](=O)[O-])ccc2OCC(=O)N(C)CC(=O)Nc2ccc(C)cc2)cc1,inconclusive: -5.9%
6,CC(=O)Nc1nonc1-c1ccccc1,inactive: -2.7%
7,O=C(c1ccccc1)c1ccc(C(=O)N2CCCC(C(F)(F)F)C2)cc1 (centres undefined),inconclusive: -23.9%
8,Clc1cccc(C2Nc3cccc4cccc(c34)N2)c1Cl,inconclusive: -46.8%
9,CCS(=O)(=O)c1ccc(O)c(NC(=O)CC2(CC(=O)O)CCCC2)c1,inconclusive: -10.3%
10,Cc1ccc(C)c(-n2c(-c3ccco3)n[nH]c2=S)c1,inconclusive: -40.1%
11,CCCCc1ccc(C(=O)NC(C(=O)O)C(C)C)cc1 (centres undefined),active: 40.1%
12,Clc1cccc(Cl)c1C[n+]1cccc2ccccc21,inconclusive: 32.9%
13,Cc1cccc(-c2cc(N3CCCN(C)CC3)n3nccc3n2)c1,inactive: -141%
14,O=C(Cn1nc(C(F)(F)F)c2c1CCCC2)NCCN1CCOCC1,inconclusive: 45.9%
15,CCOC(=O)c1oc2ccccc2c1CSc1nnnn1-c1ccc(OC)cc1,inactive: 3.3%
16,Cc1cc(=O)oc2cc(OCC(=O)Nc3nnc(CC(C)C)s3)ccc12,active: 34.8%
17,NC(=S)c1ncc(C(F)(F)F)cc1Cl,inconclusive: 0%
18,Cn1c(SC/C=C/c2ccccc2)nnc1-c1cnccn1,inactive: -0.1%
19,CCN1CCN(c2nc(Nc3cc(OC)ccc3OC)nc(Nc3cc(OC)ccc3OC)n2)CC1,inconclusive: -1.7%
20,O=C1NC(=O)C(CC(=O)N(Cc2ccco2)C2(C(=O)NC3CCCC3)CCCCC2)N1 (centres undefined),inconclusive: 8.4%

row,Structure (SMILES),inhibition
1,CCCCC(=O)N(CCOC)c1nnc(-c2ccc(OC)cc2)s1,inconclusive: -22.6%
2,CC(O)(c1ccccc1)c1nc(-c2ccncc2)cs1 (centres undefined),inactive: -4.8%
3,CC(=O)Nc1ccc(S(=O)(=O)Nc2nc(C)nc3sc(C)c(C)c23)cc1,inconclusive: 6.1%
4,CCOC(=O)N1CCN(C(=O)CSCc2ccccc2)CC1,inactive: -3.1%
5,CCCCN(C)C(=O)C1CCN(Cc2cccc(OCc3ccccc3)c2)CC1,inconclusive: 23.8%
6,CC(=O)N(Cc1ccc(F)cc1)C1=C(NCc2ccccc2)C(=O)c2ccccc2C1=O,inconclusive: -5.9%
7,Cc1ccc(S(=O)(=O)N2CCN(C(=O)CN3CCc4ccccc4C3)CC2)cc1,inactive: -5.3%
8,Cc1ccc([N+](=O)[O-])cc1NC(=O)CCc1ccccc1,inactive: -0.2%
9,CCCc1nc(SCC(=O)O)c2sc(=S)n(-c3ccccc3)c2n1,inconclusive: 0%
10,Cc1ccc(C(=O)COc2cc(O)c3c(=O)cc(-c4ccccc4)oc3c2)cc1,inconclusive: -30.5%
11,COc1cc(/C=N/c2oc(C)c(C)c2C#N)cc(Br)c1O,inconclusive: -10.8%
12,N#CC(C#N)=C(N)Nc1cccc(Cl)c1,inconclusive: 102%
13,O=C(O)c1ccccc1-c1ccccc1C(=O)Nc1ccccc1-c1ccccc1,inconclusive: 17%
14,Cc1ccnc(N/C=C(\C#N)c2nc(-c3cccc(Br)c3)cs2)c1,active: 38.7%
15,CCn1cc(CNC(=O)c2c(-c3c(Cl)cccc3Cl)noc2C)c(C)n1,active: 35.3%
16,NC(=O)c1ccccc1NCC(=O)c1ccc(Cl)cc1,inconclusive: 0.5%
17,CCc1noc(C)c1C(=O)N1CCCSC1=Nc1ccccc1C(C)C,inconclusive: 0.5%
18,CCc1nc2ccc(C(=O)N3CCN(S(=O)(=O)CC)CC3)cn2c1N(C)C(=O)C1CCCCC1,inactive: 2.5%
19,COc1ccccc1/C=C1\CCC(C2CCCC2)C1=O (centres undefined),inconclusive: -8.4%
20,CN(C)c1ccc(/C=C/c2cc[n+](C)c3ccccc23)cc1,inconclusive: -106%

row,Structure (SMILES),inhibition
1,COc1ccccc1NC(=S)NC1CCCCCCCCCCC1,inconclusive: 13.7%
2,CC12CC3CC(C)(C1)CC(C(=O)NCc1ccncc1)(C3)C2,inactive: -17.6%
3,Cn1c(=O)c2c(nc(Sc3ccccc3N)n2C)n(C)c1=O,inconclusive: 42.7%
4,Cc1nc2ccc(NC(=O)COc3cccc(F)c3)cc2s1,active: 38.4%
5,CCc1ccc2c(c1)c1nnc(NN)nc1n2C,inconclusive: -93.8%
6,CCC(=O)Nc1ccc(Cl)c(-c2nc3ncccc3o2)c1,inconclusive: 10.9%
7,CCOC(=O)N1CCN(C(=O)CN(c2ccc(OC)c(OC)c2)S(C)(=O)=O)CC1,inactive: 1.9%
8,Cc1onc(-c2ccccc2)c1NC(=O)N(CCC#N)Cc1cccs1,inconclusive: 7.7%
9,CCOC(=O)c1c(NC(=O)C(C)NCc2ccco2)sc2c1CCC(C)C2 (centres undefined),inconclusive: 4.5%
10,CC1=NN(c2ccccc2)C(=O)C1C=Nc1ccc(N(C)C)cc1 (centres undefined),inconclusive: -13%
11,CCCCn1c(N)c(N(CC)C(=O)CN2C(=O)NC(C)(c3ccccc3)C2=O)c(=O)[nH]c1=O (centres undefined),inactive: -11.1%
12,CCC(C)c1c(O)nc(SCC(=O)N2CCCCC2)[nH]c1=O (centres undefined),inconclusive: -7.4%
13,CCN(CC)CCn1c(N)c(S(=O)(=O)c2ccccc2)c2nc3ccccc3nc21,inconclusive: -10.7%
14,CCSc1nnc(NC(=O)CN2C(=O)NC3(CCCC3)C2=O)s1,inactive: -23.4%
15,Cc1ccc(C(=O)OCC(=O)N(CCc2ccccc2)Cc2ccccc2)cc1S(=O)(=O)N1CCOCC1,inactive: -1.2%
16,c1ccc(Cc2cc[n+](Cc3ccccn3)cc2)cc1,inconclusive: 117%
17,O=c1[nH]c(-c2ccccc2)nc(-c2ccccc2)c1Cl,inconclusive: 39.3%
18,CCc1noc(C)c1C(=O)N1CCN(c2cccc(Cl)c2)CC1,inactive: -0.9%
19,O=C(COc1ccc(Cl)cc1Cl)Nc1ccccc1F,inconclusive: 55.2%

# Part of the list above in order of SMILES length, rising.
row,Structure (SMILES),inhibition
3,CC(=O)Nc1ccc(S(=O)(=O)Nc2nc(C)nc3sc(C)c(C)c23)cc1,inconclusive: 6.1%
3,Cc1ccc(N(Cc2ccccc2)C(=O)c2cccc(S(=O)(=O)N3CCN(C)CC3)c2)cc1,inconclusive: -11%
18,CCc1nc2ccc(C(=O)N3CCN(S(=O)(=O)CC)CC3)cn2c1N(C)C(=O)C1CCCCC1,inactive: 2.5%
